PubChem BioAssay AID1259308, NCATS – 2017

- Screen: 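Knock-downs that increase output of a recombinant reporter protein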 (primary screen)
- Cells: human HEK293 embryonic kidney cells stably expressing firefly luciferase (HEK-CMV-Luc2-Hygro)
- Knock-down reagent: single siRNA against human genes, 0.8 pmol siRNA per well
- Timing: 72 h
- Detection: 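Luciferase light (ONE-Glo) measured on one replicate plate set and viability (CellTiter-Glo) on the other, scaled to a negative control siRNA, with robust z-scores and luciferase per cell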
- Scale: total luciferase, z-score and total luciferase, % of control: higher = more reporter protein produced
- Hit rule: 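An siRNA counts as active if its total luciferase robust z-score exceeds 3; genes with two or more such siRNAs out of three were retested with fresh siRNAs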
- Meaning of the calls: active = raised luciferase; inactive = no rise
Here is one part, drawn at random, of about 59,000 reagents tested. Over the whole deposit, about 1,510 (2.6%) got an active call. 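Calls use total luciferase alone and ignore viability, so some active siRNAs may act by altering cell number.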 A number with no mark means an inactive call. Reagents against one gene are numbered here. Not all columns of the deposit are shown.

Silencing of CLPX #1 came out at: total luciferase, z-score -0.731; total luciferase, % of control 67.3. CLPX #2 scored total luciferase, z-score -0.185; total luciferase, % of control 78.2. CLPX #3 scored total luciferase, z-score -0.809; total luciferase, % of control 65.8. PIWIL4 (piwi like RNA-mediated gene silencing 4) #1 gave total luciferase, z-score 1.67; total luciferase, % of control 115. With knock-down of PIWIL4 (piwi like RNA-mediated gene silencing 4) #2, the screen gave total luciferase, z-score 0.212; total luciferase, % of control 86.1. Depletion of PIWIL4 (piwi like RNA-mediated gene silencing 4) #3 gave: total luciferase, z-score -0.715; total luciferase, % of control 67.7.

Records listed so far whose gene name starts with P or p:
PIWIL4 (piwi like RNA-mediated gene silencing 4) #1 → total luciferase, z-score: 1.67; total luciferase, % of control: 115
PIWIL4 (piwi like RNA-mediated gene silencing 4) #2 → total luciferase, z-score: 0.212; total luciferase, % of control: 86.1
PIWIL4 (piwi like RNA-mediated gene silencing 4) #3 → total luciferase, z-score: -0.715; total luciferase, % of control: 67.7

The list goes on:
Knock-down of DGAT2 (diacylglycerol O-acyltransferase 2) #1 gave: total luciferase, z-score 2.54; total luciferase, % of control 132. DGAT2 (diacylglycerol O-acyltransferase 2) #2 showed total luciferase, z-score -0.957; total luciferase, % of control 62.9. Silencing of DGAT2 (diacylglycerol O-acyltransferase 2) #3 resulted in: total luciferase, z-score -1.34; total luciferase, % of control 55.2. For AP2A1 (adaptor related protein complex 2 subunit alpha 1) #1, the values are total luciferase, z-score 0.166; total luciferase, % of control 85.2. With knock-down of AP2A1 (adaptor related protein complex 2 subunit alpha 1) #2 the results were total luciferase, z-score -1.05; total luciferase, % of control 60.9. Depletion of AP2A1 (adaptor related protein complex 2 subunit alpha 1) #3 came out at: total luciferase, z-score -0.605; total luciferase, % of control 69.9.
